## Percent effect of library compounds

Chains of the proteins cited; added tags and fusions are not shown.
UniProt P9WPC5, whole entry: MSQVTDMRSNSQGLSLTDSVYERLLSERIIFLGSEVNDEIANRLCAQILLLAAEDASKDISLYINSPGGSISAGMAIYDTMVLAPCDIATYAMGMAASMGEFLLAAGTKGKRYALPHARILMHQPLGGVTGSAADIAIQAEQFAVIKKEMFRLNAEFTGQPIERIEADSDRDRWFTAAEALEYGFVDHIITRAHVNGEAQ
UniProt P9WPC3, whole entry partner: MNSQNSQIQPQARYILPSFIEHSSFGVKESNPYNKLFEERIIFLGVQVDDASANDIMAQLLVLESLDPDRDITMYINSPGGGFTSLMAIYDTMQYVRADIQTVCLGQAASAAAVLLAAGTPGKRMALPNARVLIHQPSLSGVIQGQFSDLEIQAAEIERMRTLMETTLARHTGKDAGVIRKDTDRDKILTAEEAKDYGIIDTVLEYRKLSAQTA

Source: ChEMBL document CHEMBL3988442, “University of Dundee, Small-Polar-MMV Screening Library” (2021).

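ClpP1P2, Mycobacterium tuberculosis (UniProt P9WPC5 and UniProt P9WPC3). Protease assay of ClpP1P2, read by the AMC dye that it sets free. Tested at 50 µM. Direction is inferred from only a few compounds that gave an IC50; most scored high, so higher reads as stronger inhibition. Most other retested compounds had strongly negative values. Size under these conditions: about 69,000 compounds, about 10 of them at 50% or above in at least one test.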

The filed quantity is “Percent Effect” (%).
The record does not define 0% and 100%; most values in the screen are far below 50% and negative numbers occur (in some assays of this library far below -100).
This is an unselected part of the compounds tested.

Result for CN1CCN(C(=O)c2cnc3c(cnn3C3CCCC3)c2)CC1 was 8.674%. For Cc1noc([C@H]2C[C@@H]3CCN(c4nnc(C)s4)C[C@H]3O2)n1 the result was -3.905%. For CC(C)c1n[nH]c(C2CN(Cc3nnc(C4CC4)o3)CCO2)n1 (centres unmarked) the result was -2.316%. With Cc1ccc(N(C)C2CCN(C(=O)c3ccsc3)CC2)nn1 the screen gave 0.718%. With CSCCCN1CCn2nc(CNC(=O)N(C)C)cc2C1 the screen gave -10.94%. For CCOC(=O)NCCNC(=O)c1cc(Br)cn1C(C)C the result was -14.14%. N#Cc1ccc(CN2C[C@@H]3OCC(=O)N[C@@H]3C2)cc1 read -12.36%.

For O=C(C1CC1)N1CCN2C[C@H](c3ccccc3)[C@@H](CO)[C@H]2C1 the result was -1.477%. CC1N(CC2CC2)C(=O)COC12CCN(C(=O)c1cnccn1)CC2 (centres unmarked) gave -10.4%. Result for COC(=O)c1ccc(N(C(=O)c2cc(Cl)ccn2)C(C)C)c(C)c1 was -2.224%. For CC(C)(C(=O)NCC1CCN(Cc2ncc[nH]2)C1)c1ccccc1 (centres unmarked) the result was -24.62%. Result for O=c1c2ccc(Cl)cc2ncn1CCCN1CCCCC1CO (centres unmarked) was 9.007%. For Cc1cc(C(=O)N2CCC(c3nccn3Cc3ccncc3)CC2)no1 the result was -3.907%. O=C(CN1CCS(=O)(=O)CC1)NC1CCOc2ccccc21 (centres unmarked) gave 5.966%.

COc1ccc(F)cc1C(C(=O)O)N1CCSCC1 (centres unmarked) read -1.268%. With O=C([C@H]1CN(Cc2nccs2)C[C@H]2OCC[C@@H]12)N1CCCC1 the screen gave -3.259%. O=C(NCC1CCOC1)Nc1ccc(Oc2cccc(F)c2)nc1 (centres unmarked) read -19.65%. For CN(Cc1ccc(OC(F)F)cc1)C(=O)CS(=O)(=O)c1ccc(Cl)cc1 the result was -12.32%. For COc1ccc2[nH]cc(CCNC(=O)C3CCCN(C(C)=O)C3)c2c1 (centres unmarked) the result was 3.893%. With CN(C)C(=O)c1ccc(C2CCCN2C(=O)c2cccc3c2OCC3)s1 (centres unmarked) the screen gave -8.54%. With CC(C)c1nc(C2CCCN2C(=O)c2cc(Cl)c[nH]2)no1 (centres unmarked) the screen gave -3.429%.

Cc1cc(C)n(CC2CCCN2C(=O)c2ccc(N(C)C)nn2)n1 (centres unmarked) read 0.5058%. COc1cc(I)c(Cl)cc1C(=O)N(C)CC(=O)NC(C)(C)C read 0.5601%. CCc1ncc(C(=O)N(C)C(C)c2ccc3c(c2)OCCO3)cn1 (centres unmarked) gave -19.29%. For C=Cc1ccc(CSc2nc3c(c(=O)[nH]2)CN(CCC)CC3)cc1 the result was 12.56%. With COC(=O)c1cccn1C1CCN(Cc2ccccc2)CC1 the screen gave -5.58%. Cc1nc(CC(=O)N2CCN(C)CC2c2ccccc2)cs1 (centres unmarked) gave 1.266%. For COC(=O)CNC(=O)Cn1ccc2cccc(OC)c21 the result was -9.075%.

Result for CC(C)Cc1nc(CN2CCc3onc(-c4cccc(F)c4)c3C2)no1 was -2.574%. For O=C(c1ccsc1)N1C[C@@H]2CCN(c3cccnc3)C[C@@H]2C1 the result was -4.48%. For O=C(CCc1ccccc1Br)NCC(=O)NCc1ccccc1 the result was -2.979%. Cc1ccc(C2=CCN(C(=O)C3CCN(C)C(=O)C3)CC2)cc1 (centres unmarked) gave -40.55%. For Cc1noc(C2CCN(C(=O)CCCNc3ncccn3)CC2)n1 the result was -11.79%. For Cc1cnn(CC2CCCN2CC(=O)N(C)Cc2ccco2)c1 (centres unmarked) the result was -16.08%. CO[C@@H]1CO[C@@]2(CCCN(S(=O)(=O)c3ccccc3)C2)C1 gave 3.78%.

COc1ccc(CN(C)c2nc3c(cnn3C)c(=O)[nH]2)c(OC)c1 read 1.771%. Result for COc1ccc([C@@H]2CN(Cc3cccnc3N)C[C@H]2NC(C)=O)cc1 was 19.26%. Result for O=C(Nc1ccnn1Cc1ccccc1Cl)C1CCS(=O)(=O)C1 (centres unmarked) was 1.179%. For CCOC(=O)C(C)NC(=O)N1CCN(c2nc3ccccc3n2C)CC1 (centres unmarked) the result was -1.516%. For Cc1ncsc1CCN(C)C1CCN(c2ncnc3[nH]cnc23)CC1 the result was 8.102%. For CCOCCCNC(=O)CN(c1ccc(C)c(C)c1)S(C)(=O)=O the result was 3.169%. With CS(=O)(=O)N1CCC(C(=O)NC(Cc2ccsc2)c2cccnc2)CC1 (centres unmarked) the screen gave 20.34%.

For COc1ccccc1CN1C(=O)O[C@@H]2CN(c3nc(C)cnc3C)C[C@@H]21 the result was 3.382%. With Cc1cccc(-c2nc(C)nn2CN2CCN(S(C)(=O)=O)CC2)c1 the screen gave 8.303%. With CCN(CC)Cc1ccccc1NC(=O)N(C)Cc1ccc(OC)cc1 the screen gave -2.743%.

Once more, the final 5:

* CCOCCCNC(=O)CN(c1ccc(C)c(C)c1)S(C)(=O)=O : 3.169%
* CS(=O)(=O)N1CCC(C(=O)NC(Cc2ccsc2)c2cccnc2)CC1 (centres unmarked) : 20.34%
* COc1ccccc1CN1C(=O)O[C@@H]2CN(c3nc(C)cnc3C)C[C@@H]21 : 3.382%
* Cc1cccc(-c2nc(C)nn2CN2CCN(S(C)(=O)=O)CC2)c1 : 8.303%
* CCN(CC)Cc1ccccc1NC(=O)N(C)Cc1ccc(OC)cc1 : -2.743%